The other results are listed elsewhere or left out. Repeats are few or missing, and single values can be far off.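 Cells were imaged in 1,536-well plates, and nuclei stained with an antibody against cleaved PARP were counted against all DNA-stained nuclei to give the apoptosis fraction. Screening doses were chosen to leave most cells alive, and resting and induced cleaved-PARP levels differ strongly between cell lines.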
Tests used:
Experiment in all cases: cleaved PARP positive nuclei fraction relative to DMSO control; melanoma cells; higher = more apoptosis
Settings in all cases: library dose: low library concentration; 72 h
[1] = system: 501Mel
[2] = system: A101D
[3] = system: A2058
[4] = system: A375
[5] = system: C32
[6] = system: CBRC008 (line from a melanoma biopsy)
[7] = system: CBRC014 (line from a melanoma biopsy)
[8] = system: CBRC016 (line from a melanoma biopsy)
[9] = system: CBRC017 (line from a melanoma biopsy)

| SMILES | cleaved PARP positive nuclei fraction [1] [%] | cleaved PARP positive nuclei fraction [2] [%] | cleaved PARP positive nuclei fraction [3] [%] | cleaved PARP positive nuclei fraction [4] [%] | cleaved PARP positive nuclei fraction [5] [%] | cleaved PARP positive nuclei fraction [6] [%] | cleaved PARP positive nuclei fraction [7] [%] | cleaved PARP positive nuclei fraction [8] [%] | cleaved PARP positive nuclei fraction [9] [%] |
| --- | --- | --- | --- | --- | --- | --- | --- | --- | --- |
| CC[C@]1(O)C[C@H]2CN(CCc3c([nH]c4ccccc34)[C@@](C(=O)OC)(c3cc4c(cc3OC)N(C=O)[C@H]3[C@@](O)(C(=O)OC)[C@H](OC(C)=O)[C@]5(CC)C=CCN6CC[C@]43[C@@H]65)C2)C1 [vincristine] + C[C@]1(O)C[C@@H](c2nc(-c3ccc4ccc(-c5ccccc5)nc4c3)c3c(N)nccn32)C1 [OSI906] (first compound 0.0001 µM, partner dose 0.4 µM) | 64.9 | 105 | 93 | 311 | 73.1 | 121 | 106 | 122 | 123 |
| O=c1[nH]nc(Sc2ncc([N+](=O)[O-])s2)n1-c1ccc2c(c1)OCCO2 + COc1ccc(C2=N[C@@H](c3ccc(Cl)cc3)[C@@H](c3ccc(Cl)cc3)N2C(=O)N2CCNC(=O)C2)c(OC(C)C)c1 [Nutlin-3] (first compound 0.2 µM, partner dose 0.1 µM) | 103 | 201 | 136 | 135 | 79.3 | 48.7 | 109 | 129 | 135 |
| CCCCCCCCCCCCCCCCCCOP(=O)([O-])OC1CC[N+](C)(C)CC1 [Perifosine] + C[C@]1(O)C[C@@H](c2nc(-c3ccc4ccc(-c5ccccc5)nc4c3)c3c(N)nccn32)C1 [OSI906] (first compound 0.4 µM, partner dose 0.4 µM) | 146 | 151 | 110 | 611 | 87.8 | 132 | 124 | 134 | 109 |
| CCCCCCCCCCCCCCCCCCOP(=O)([O-])OC1CC[N+](C)(C)CC1 [Perifosine] + CN(c1ncccc1CNc1nc(Nc2ccc3c(c2)CC(=O)N3)ncc1C(F)(F)F)S(C)(=O)=O [PF562271] (first compound 0.4 µM, partner dose 0.08 µM) | 63.6 | 84 | 143 | 418 | 83.4 | 113 | 96.4 | 99.5 | 137 |
| O=c1[nH]nc(Sc2ncc([N+](=O)[O-])s2)n1-c1ccc2c(c1)OCCO2 + CNC(=O)c1cc(Oc2ccc(NC(=O)Nc3ccc(Cl)c(C(F)(F)F)c3)cc2)ccn1 [sorafenib] (first compound 0.2 µM, partner dose 0.4 µM) | 93.9 | 48.3 | 70.9 | 98.8 | 74.4 | 158 | 78.4 | 30.6 | 78.1 |
| Cc1cc(Nc2cc(N3CCN(C)CC3)nc(Sc3ccc(NC(=O)C4CC4)cc3)n2)n[nH]1 [Tozasertib] + Cc1nc(Nc2ncc(C(=O)Nc3c(C)cccc3Cl)s2)cc(N2CCN(CCO)CC2)n1 [dasatanib] (first compound 0.006 µM, partner dose 0.004 µM) | 91 | 188 | 458 | 158 | 87.1 | 146 | 109 | 124 | 93 |
| O=c1[nH]nc(Sc2ncc([N+](=O)[O-])s2)n1-c1ccc2c(c1)OCCO2 + C[C@@H](N)c1ccc(C(=O)Nc2ccnc3[nH]ccc23)cc1 [RKI983] (first compound 0.2 µM, partner dose 0.4 µM) | 41.9 | 95.2 | 170 | 97.9 | 99.2 | 142 | 138 | 166 | 169 |
| CC[C@]1(O)C[C@H]2CN(CCc3c([nH]c4ccccc34)[C@@](C(=O)OC)(c3cc4c(cc3OC)N(C=O)[C@H]3[C@@](O)(C(=O)OC)[C@H](OC(C)=O)[C@]5(CC)C=CCN6CC[C@]43[C@@H]65)C2)C1 [vincristine] + CS(=O)(=O)c1ccc(C(=O)Nc2ccc(Cl)c(-c3ccccn3)c2)c(Cl)c1 [vismodegib] (first compound 0.0001 µM, partner dose 1 µM) | 84.6 | 139 | 541 | 252 | 97.4 | 41.7 | 126 | 137 | 153 |
| O=C(/C=C/c1cccnc1)NCCCCC1CCN(C(=O)c2ccccc2)CC1 + CCN(CC)CCNC(=O)c1c(C)[nH]c(/C=C2\C(=O)Nc3ccc(F)cc32)c1C [sunitinib] (first compound 0.01 µM, partner dose 0.4 µM) | 338 | 97.4 | 71 | 147 | 35.7 | 3880 | 107 | 702 | 758 |
| Cc1cc(Nc2cc(N3CCN(C)CC3)nc(Sc3ccc(NC(=O)C4CC4)cc3)n2)n[nH]1 [Tozasertib] + C[C@@H](N)c1ccc(C(=O)Nc2ccnc3[nH]ccc23)cc1 [RKI983] (first compound 0.006 µM, partner dose 0.4 µM) | 45.7 | 91.8 | 115 | 154 | 104 | 43.6 | 123 | 167 | 79.4 |
| O=C(/C=C/c1cccnc1)NCCCCC1CCN(C(=O)c2ccccc2)CC1 + Cc1ccc(Nc2nccc(N(C)c3ccc4c(C)n(C)nc4c3)n2)cc1S(N)(=O)=O [Pazopanib] (first compound 0.01 µM, partner dose 0.4 µM) | 37.1 | 25.5 | 122 | 140 | 76.2 | 1960 | 128 | 1120 | 615 |
| N#CC[C@H](C1CCCC1)n1cc(-c2ncnc3[nH]ccc23)cn1 [ruxolitinib] + Nc1ncn([C@H]2C[C@H](O)[C@@H](CO)O2)c(=O)n1 [decitabine] (first compound 1 µM, partner dose 0.1 µM) | 67.3 | 29.3 | 110 | 192 | 71.3 | 88.2 | 100 | 83.4 | 115 |
| O=C(/C=C/c1cccnc1)NCCCCC1CCN(C(=O)c2ccccc2)CC1 + Cn1cnc2c(F)c(Nc3ccc(Br)cc3Cl)c(C(=O)NOCCO)cc21 [selumetinib] (first compound 0.01 µM, partner dose 0.015 µM) | 356 | 143 | 104 | 71.6 | 177 | 4440 | 105 | 348 | 521 |
| O=c1[nH]nc(Sc2ncc([N+](=O)[O-])s2)n1-c1ccc2c(c1)OCCO2 + C#Cc1cccc(Nc2ncnc3cc(OCCOC)c(OCCOC)cc23)c1 [erlotinib] (first compound 0.2 µM, partner dose 0.8 µM) | 99.2 | 284 | 76.3 | 87.6 | 239 | 174 | 93.2 | 69.9 | 220 |
| O=c1[nH]nc(Sc2ncc([N+](=O)[O-])s2)n1-c1ccc2c(c1)OCCO2 + NC1(c2ccc(-c3nc4ccn5c(=O)[nH]nc5c4cc3-c3ccccc3)cc2)CCC1 [MK2206] (first compound 0.2 µM, partner dose 0.4 µM) | 108 | 151 | 83.9 | 209 | 152 | 45.8 | 98 | 101 | 92.3 |
| Cc1cn(-c2cc(NC(=O)c3ccc(C)c(Nc4nccc(-c5cccnc5)n4)c3)cc(C(F)(F)F)c2)cn1 [nilotinib] + Nc1nc(F)nc2c1ncn2[C@@H]1O[C@H](CO)[C@@H](O)[C@@H]1O [fludarabine] (first compound 0.2 µM, partner dose 0.2 µM) | 11400 | 98.9 | 130 | 5890 | 320 | 61.7 | 93.5 | 238 | 131 |
| O=C(/C=C/c1cccnc1)NCCCCC1CCN(C(=O)c2ccccc2)CC1 + C=C(c1ccc(C(=O)O)cc1)c1cc2c(cc1C)C(C)(C)CCC2(C)C [Bexarotene] (first compound 0.01 µM, partner dose 2 µM) | 107 | 85.9 | 101 | 68 | 68.1 | 2280 | 126 | 334 | 522 |
| N#CC[C@H](C1CCCC1)n1cc(-c2ncnc3[nH]ccc23)cn1 [ruxolitinib] + CCCCCCCCc1ccc(CCC(N)(CO)CO)cc1 [fingolimod] (first compound 1 µM, partner dose 2 µM) | 98.1 | 36.2 | 132 | 198 | 72.8 | 46.1 | 97.1 | 164 | 111 |
| CCCCCCCCCCCCCCCCCCOP(=O)([O-])OC1CC[N+](C)(C)CC1 [Perifosine] + CC1(C)CCC(c2ccc(Cl)cc2)=C(CN2CCN(c3ccc(C(=O)NS(=O)(=O)c4ccc(N[C@H](CCN5CCOCC5)CSc5ccccc5)c(S(=O)(=O)C(F)(F)F)c4)cc3)CC2)C1 [ABT263] (first compound 0.4 µM, partner dose 0.4 µM) | 129 | 94.2 | 342 | 2130 | 865 | 397 | 802 | 534 | 571 |
| Cc1ccc(Nc2nccc(N(C)c3ccc4c(C)n(C)nc4c3)n2)cc1S(N)(=O)=O [Pazopanib] + C[C@]1(c2nc3c(C(N)=O)cccc3[nH]2)CCCN1 [Veliparib] (first compound 0.4 µM, partner dose 1.4 µM) | 97.9 | 105 | 150 | 159 | 83.3 | 105 | 226 | 164 | 123 |
| Cc1ccc(Nc2nccc(N(C)c3ccc4c(C)n(C)nc4c3)n2)cc1S(N)(=O)=O [Pazopanib] + Cn1c(Nc2ccc(C(F)(F)F)cc2)nc2cc(Oc3ccnc(-c4ncc(C(F)(F)F)[nH]4)c3)ccc21 [CHIR265] (first compound 0.4 µM, partner dose 0.08 µM) | 120 | 190 | 158 | 313 | 40.1 | 47.5 | 129 | 110 | 132 |

Part of the list above, limited to cleaved PARP positive nuclei fraction [7] [%], cleaved PARP positive nuclei fraction [1] [%] and cleaved PARP positive nuclei fraction [2] [%].
SMILES,cleaved PARP positive nuclei fraction [7] [%],cleaved PARP positive nuclei fraction [1] [%],cleaved PARP positive nuclei fraction [2] [%]
"O=c1[nH]nc(Sc2ncc([N+](=O)[O-])s2)n1-c1ccc2c(c1)OCCO2 + NC1(c2ccc(-c3nc4ccn5c(=O)[nH]nc5c4cc3-c3ccccc3)cc2)CCC1 [MK2206] (first compound 0.2 µM, partner dose 0.4 µM)",98,108,151
"Cc1cn(-c2cc(NC(=O)c3ccc(C)c(Nc4nccc(-c5cccnc5)n4)c3)cc(C(F)(F)F)c2)cn1 [nilotinib] + Nc1nc(F)nc2c1ncn2[C@@H]1O[C@H](CO)[C@@H](O)[C@@H]1O [fludarabine] (first compound 0.2 µM, partner dose 0.2 µM)",93.5,11400,98.9

— the supplement of paper PMC4604168 (melanoma cell lines)
